# Experimental data reported in the supplement of paper PMC6411743.
# Sequences of proteins named here, by UniProt entry; tags and fusion partners are left off. A change or cut given only in a name is not applied to a line headed by its entry.
# UniProt P55769: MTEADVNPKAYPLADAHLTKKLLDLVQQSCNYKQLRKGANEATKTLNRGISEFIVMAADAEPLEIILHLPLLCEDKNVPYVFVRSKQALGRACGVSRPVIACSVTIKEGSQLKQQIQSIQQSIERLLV
# UniProt P78406: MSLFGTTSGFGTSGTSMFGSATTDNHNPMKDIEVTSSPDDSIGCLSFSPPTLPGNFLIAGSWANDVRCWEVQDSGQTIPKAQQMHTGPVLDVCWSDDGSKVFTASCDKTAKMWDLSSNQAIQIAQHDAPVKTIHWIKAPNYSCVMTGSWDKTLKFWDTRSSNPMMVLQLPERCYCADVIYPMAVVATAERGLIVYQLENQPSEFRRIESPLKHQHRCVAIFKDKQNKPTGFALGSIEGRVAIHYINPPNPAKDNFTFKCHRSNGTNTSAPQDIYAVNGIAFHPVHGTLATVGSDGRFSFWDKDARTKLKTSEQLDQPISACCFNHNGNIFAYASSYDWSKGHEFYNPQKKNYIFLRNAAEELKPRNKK
# UniProt P61966: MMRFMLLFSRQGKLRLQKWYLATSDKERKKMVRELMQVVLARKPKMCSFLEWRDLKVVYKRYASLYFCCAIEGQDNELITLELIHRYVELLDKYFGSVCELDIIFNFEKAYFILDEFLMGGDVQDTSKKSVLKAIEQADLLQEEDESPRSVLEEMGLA
# UniProt Q00013: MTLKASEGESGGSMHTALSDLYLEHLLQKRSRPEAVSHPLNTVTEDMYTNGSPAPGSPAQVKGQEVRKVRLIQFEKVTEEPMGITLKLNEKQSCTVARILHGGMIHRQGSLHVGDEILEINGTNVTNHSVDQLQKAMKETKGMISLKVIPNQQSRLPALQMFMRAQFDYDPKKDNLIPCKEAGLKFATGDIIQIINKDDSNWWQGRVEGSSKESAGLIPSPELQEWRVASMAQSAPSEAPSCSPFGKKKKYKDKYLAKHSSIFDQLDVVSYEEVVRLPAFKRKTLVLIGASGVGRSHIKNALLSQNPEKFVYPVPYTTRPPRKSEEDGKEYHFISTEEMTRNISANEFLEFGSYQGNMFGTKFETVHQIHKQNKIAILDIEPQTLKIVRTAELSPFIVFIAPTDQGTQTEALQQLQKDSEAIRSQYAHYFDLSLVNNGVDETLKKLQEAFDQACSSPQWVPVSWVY
# UniProt P53990, whole entry: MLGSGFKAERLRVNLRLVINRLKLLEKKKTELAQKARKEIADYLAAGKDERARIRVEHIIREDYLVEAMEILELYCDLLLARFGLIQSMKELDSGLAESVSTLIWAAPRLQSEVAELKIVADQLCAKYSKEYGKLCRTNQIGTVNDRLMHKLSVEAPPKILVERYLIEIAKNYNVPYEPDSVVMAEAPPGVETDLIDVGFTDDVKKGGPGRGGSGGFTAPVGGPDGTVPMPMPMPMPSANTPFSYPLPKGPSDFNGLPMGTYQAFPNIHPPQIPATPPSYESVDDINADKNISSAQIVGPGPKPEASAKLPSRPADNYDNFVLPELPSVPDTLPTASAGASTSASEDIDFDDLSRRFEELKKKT
# ± gives the standard deviation of the averaged measurements. This is one part of the list.
# Compound: Nc1nc2c(ncn2[C@@H]2O[C@H](COP(=O)(O)OP(=O)(O)OP(=O)(O)O)[C@@H](O)[C@H]2O)c(=O)[nH]1 [guanosine triphosphate]
# Test: NP40-soluble protein abundance relative to vehicle (solubility fold change) (ratio); higher = more soluble protein in presence of GTP
# Conditions: concentration: 10mM
# Outline: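 Data come from three independent experiments in which Dounce-homogenised Jurkat crude lysate was treated at eight concentrations from 0.1 to 10 mM. Treatment ran 10 min at room temperature and then 3 min at 37 °C, after which 0.8% NP40 and benzonase were added for 60 min at 4 °C before ultracentrifugation. The supernatant underwent TMT labelling and LC-MS/MS, and vsn-normalised intensities were expressed as fold change against the detergent-processed vehicle in each replicate.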
row,Target,NP40-soluble protein abundance
1,UniProt P55769,1.63 ± 0.15
2,UniProt P62081,1.03 ± 0.18
3,UniProt P82912 and related entries,1.24 ± 0.35
4,UniProt P78406 and related entries,1.11 ± 0.075
5,UniProt P62269,0.83 ± 0.26
6,UniProt P63000 and related entries,1.09 ± 0.07
7,UniProt P62913 and related entries,1.02 ± 0.15
8,UniProt P62277,0.816 ± 0.29
9,UniProt P61966,1.07 ± 0.028
10,MPP1 (UniProt Q00013),0.903 ± 0.068
11,UniProt P53990 and related entries,0.884 ± 0.069

# In a second layout: results already given
row	Target	NP40-soluble protein abundance
9	UniProt P61966	1.07 ± 0.028
11	UniProt P53990 and related entries	0.884 ± 0.069
